Reference: PubChem BioAssay AID1259308 (NCATS, 2017)
In all, the deposit lists about 59,000 reagents; below is a random part of them. About 1,510 of all reagents (2.6%) were called active. 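Calls use total luciferase alone and ignore viability, so some active siRNAs may act by altering cell number.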 A number with no mark means an inactive call. Reagents against one gene are numbered here.

Purpose: 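Candidate targets for better recombinant protein yield in mammalian cells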 (primary screen)
Cell system: human HEK293 embryonic kidney cells stably expressing firefly luciferase (HEK-CMV-Luc2-Hygro)
Knock-down reagent: single siRNA against human genes, 0.8 pmol siRNA per well
Time to read-out: 72 h
Measurement: 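Luciferase light (ONE-Glo) measured on one replicate plate set and viability (CellTiter-Glo) on the other, scaled to a negative control siRNA, with robust z-scores and luciferase per cell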
Direction: total luciferase, z-score and total luciferase, % of control: higher = more reporter protein produced; luciferase per cell, z-score: higher = more reporter output per viable cell; viable cells, % of control: higher = more viable cells
Active means: 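An siRNA counts as active if its total luciferase robust z-score exceeds 3; genes with two or more such siRNAs out of three were retested with fresh siRNAs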
Meaning of the calls: active = raised luciferase; inactive = no rise

| gene | siRNA no. | total luciferase, z-score | total luciferase, % of control | luciferase per cell, z-score | viable cells, % of control |
| --- | --- | --- | --- | --- | --- |
| PAPOLA-DT | 1 | -0.326 | 75.4 | 0.0962 | 82.2 |
| PAPOLA-DT | 2 | 0.799 | 97.8 | 1.87 | 66.8 |
| PAPOLA-DT | 3 | 0.435 | 90.5 | 0.811 | 81.7 |
| BCL11B | 1 | -0.444 | 73.1 | -0.0107 | 81.9 |
| BCL11B | 2 | 2.21 | 126 | 1.96 | 83.9 |
| BCL11B | 3 | 4.55 (active) | 172 | 2.97 | 88.1 |
| GNA15 | 1 | -2 | 42.2 | -2.27 | 85.6 |
| GNA15 | 2 | -0.639 | 69.2 | -0.266 | 82.9 |
| GNA15 | 3 | -0.511 | 71.7 | -0.614 | 94.2 |
| BNIP3 | 1 | -0.215 | 77.6 | -0.676 | 104 |
| BNIP3 | 2 | -1.06 | 60.8 | -0.495 | 77.4 |
| BNIP3 | 3 | -0.878 | 64.4 | -0.588 | 84.1 |
| PRPS2 | 1 | 0.141 | 84.7 | 0.612 | 80.6 |
| PRPS2 | 2 | -0.0554 | 80.8 | -0.526 | 104 |
| PRPS2 | 3 | -0.606 | 69.8 | -1.18 | 107 |
| SLCO3A1 | 1 | 0.27 | 87.3 | 0.213 | 92.2 |
| SLCO3A1 | 2 | -0.169 | 78.5 | -0.0825 | 89.7 |
| SLCO3A1 | 3 | 0.137 | 84.6 | -0.254 | 101 |
| DOP1A | 1 | 0.454 | 90.9 | 1.65 | 65.8 |
| DOP1A | 2 | 0.595 | 93.7 | 0.441 | 93.2 |
| DOP1A | 3 | 0.387 | 89.6 | 0.193 | 95.1 |
| PORCN | 1 | 0.793 | 97.7 | 0.898 | 86.2 |
| PORCN | 2 | -0.349 | 74.9 | -0.705 | 101 |
| PORCN | 3 | 0.755 | 96.9 | 0.45 | 96.2 |

Called active, among the entries above:
| gene | siRNA no. | total luciferase, z-score | total luciferase, % of control | luciferase per cell, z-score | viable cells, % of control |
| --- | --- | --- | --- | --- | --- |
| BCL11B | 3 | 4.55 (active) | 172 | 2.97 | 88.1 |
